One substance from article PMC7069097 can be followed below.

Amino acid sequences for entries named in this document (tags omitted). A change or cut given only in a name is not applied to a line headed by its entry.
UniProt Q8N4S7: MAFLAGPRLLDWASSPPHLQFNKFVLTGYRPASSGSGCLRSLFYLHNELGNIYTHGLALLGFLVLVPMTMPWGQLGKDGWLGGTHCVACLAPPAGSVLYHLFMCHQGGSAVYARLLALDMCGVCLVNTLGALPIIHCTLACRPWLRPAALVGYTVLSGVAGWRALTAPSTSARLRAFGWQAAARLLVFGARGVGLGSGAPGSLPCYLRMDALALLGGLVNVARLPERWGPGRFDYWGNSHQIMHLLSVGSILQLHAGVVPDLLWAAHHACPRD
UniProt Q16236: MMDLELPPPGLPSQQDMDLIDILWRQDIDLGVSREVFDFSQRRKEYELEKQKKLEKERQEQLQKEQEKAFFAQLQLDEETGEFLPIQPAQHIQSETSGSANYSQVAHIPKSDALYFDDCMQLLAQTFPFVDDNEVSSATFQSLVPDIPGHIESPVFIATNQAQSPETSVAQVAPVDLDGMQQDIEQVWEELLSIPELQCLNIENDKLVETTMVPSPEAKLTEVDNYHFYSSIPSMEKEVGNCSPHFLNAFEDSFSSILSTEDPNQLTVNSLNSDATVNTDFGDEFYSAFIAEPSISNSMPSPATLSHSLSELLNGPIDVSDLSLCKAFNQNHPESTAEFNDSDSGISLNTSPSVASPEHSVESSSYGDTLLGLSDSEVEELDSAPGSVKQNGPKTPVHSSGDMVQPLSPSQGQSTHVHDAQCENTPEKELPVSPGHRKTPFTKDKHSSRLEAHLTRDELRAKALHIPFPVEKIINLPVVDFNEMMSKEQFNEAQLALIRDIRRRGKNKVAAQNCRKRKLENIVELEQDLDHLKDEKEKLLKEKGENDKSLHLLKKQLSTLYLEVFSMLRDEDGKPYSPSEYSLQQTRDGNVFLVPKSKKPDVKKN

No constants are given. Whether binding was seen depends on the method and setting. Binding seen in cells or lysates may run through a third protein. Binding can be weak; no strength is given.

The assay concerns the target GST-PAQR4 fusion protein (human) (UniProt Q8N4S7). The assay can be described thus: pull-down; bacterially expressed, purified GST-PAQR4 (or GST) incubated with SPC-A1 cell lysates; western blot of endogenous proteins; only the target purified.

Turning to “endogenous Nrf2 (from UniProt Q16236 1-605)”, the binding entry was “binds”.
